From patent US7902261B2, “Medicinal compositions for preventing or treating viral myocarditis” (Mitsubishi Tanabe Pharma Corporation, priority 1999, dated 2011)
Counter-ions that a name gives are not always drawn. At least one structure is not confirmed: it was looked up by name or label, or the drawing left a doubt.

Tested on: EMC virus
Assay: Intracardiac virus titer (plaque assay on human amnion FL cells)
Assay type: in vivo, male DBA/2 mice
Details: compound 1 10 mg/kg/day orally for 5 days; day 5
Protocol: Four-week-old male DBA/2 mice were divided into 3 groups and EMC virus (10 pfu) was intraperitoneally inoculated. After inoculation, distilled water (solvent, n=8) as a control, CsA (40 mg/kg/day, n=5), and compound 1 (10 mg/kg/day, n=7) were orally administered forcibly for 5 consecutive days using a probe. Five days later, the heart was aseptically harvested from the mice, and after weighing the ventricle, homogenized in phosphate-buffered saline (PBS, 1 ml). The homogenate was centrifuged at 4° C., 1,500 g for 15 min and the supernatant (0.1 ml) was inoculated to human amnion FL cell monolayer and cultured at 37° C. for 60 min in 5% CO2. The cells were overlaid with a medium (3 ml) containing 4% fetal calf serum and 1% methylcellulose. After culture under 5% CO2-containing humidified atmosphere at 37° C. for 20 hr, the cells were fixed with acetic acid-methanol (1:2) and stained with 1% crystal violet. The plaques were counted under an inverted microscope (Circulation. 89:846-851, 1994). When the plaques are too many to count, the supernatant is appropriately diluted with Dulbecco's modified Eagle's medium (DMEM) and subjected to a similar assay. The test was repeated and the mean was taken. The virus titer was expressed in pfu/g heart. The statistical analysis was conducted by one way ANOVA and Fisher's protected least significant difference test.

Compound: CCCCCCCCc1ccc(CCC(N)(CO)CO)cc1 [compound 1, 2-Amino-2-(2-(4-octylphenyl)ethyl)propane-1,3-diol hydrochloride]
- effect on virus replication in the heart (in words): no effect of increase in virus replication
